Experimental data: PubChem BioAssay AID1671190 (National Center for Advancing Translational Sciences (NCATS), 2021)
In all, about 580,000 compounds went through this assay and about 6,100 (1.1%) were called active. Inconclusive results, whose numbers are uncertain, are shown with a selection of clear calls. Calls come from the whole dose curve; as a rule, active = well fitted inhibition curve with a large enough effect; inconclusive = small, poorly fitted or top-dose-only effect, or another doubt; inactive = no such curve, though single readings can be large or run the other way. A potency beside an inconclusive call is a rough fit, not a confirmed value.

Protein sequences, listed by entry. Tags and fused reporters are not part of them. Lines headed by an entry give the natural chain unless they say otherwise; changes in a name come on top.
UniProt P18054: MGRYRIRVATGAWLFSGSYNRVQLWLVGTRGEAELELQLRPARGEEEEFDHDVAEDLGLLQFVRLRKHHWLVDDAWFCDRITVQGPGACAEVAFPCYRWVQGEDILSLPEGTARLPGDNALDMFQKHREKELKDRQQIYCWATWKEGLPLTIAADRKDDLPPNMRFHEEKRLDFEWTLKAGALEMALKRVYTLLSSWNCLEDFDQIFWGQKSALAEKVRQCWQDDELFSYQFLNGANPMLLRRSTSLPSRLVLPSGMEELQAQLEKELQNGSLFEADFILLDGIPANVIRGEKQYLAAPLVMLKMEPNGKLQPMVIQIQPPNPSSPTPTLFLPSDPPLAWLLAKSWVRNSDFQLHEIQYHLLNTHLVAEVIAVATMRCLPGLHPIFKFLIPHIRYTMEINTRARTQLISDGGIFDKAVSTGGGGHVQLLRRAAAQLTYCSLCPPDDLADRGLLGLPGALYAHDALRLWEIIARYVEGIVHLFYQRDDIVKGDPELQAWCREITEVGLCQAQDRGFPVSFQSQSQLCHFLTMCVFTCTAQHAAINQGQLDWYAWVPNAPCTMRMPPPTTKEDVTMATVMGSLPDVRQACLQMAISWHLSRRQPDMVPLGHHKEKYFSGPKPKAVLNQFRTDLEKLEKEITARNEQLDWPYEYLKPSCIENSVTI

Biological target: Polyunsaturated fatty acid lipoxygenase ALOX12 (Homo sapiens) (UniProt P18054)
Experiment: Primary qHTS assay for inhibitors of human arachidonate 12S-lipoxygenase (ALOX12): Round 2
Details: purified 12hLO, xylenol orange hydroperoxide absorbance; activity change, negative = inhibition: at 108 µM (top of the series) unless noted
How it was run: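 Hydroperoxide product was detected by ferrous iron/xylenol orange as the 573 to 405 nm absorbance ratio. Arachidonic acid at 40 uM (final) was turned over for 30 min at room temperature by 150 nM human 12hLO, pH 7.0 Hepes buffer, after 15 min compound preincubation.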
% is set by controls: 0 for no effect and ±100 for the full control effect; potency is the fitted concentration of half-maximal effect.

Which “activity change, negative = inhibition” value does the source give for `Cc1nonc1CN(C)C(=O)CC(c1ccccc1)c1cccc(Cl)c1` (stereo not given) here?
Its value is inactive: 26.7%.

How did the Potency turn out when `COc1cccc(C2C(=O)c3ccccc3C2=O)c1` was run?
Its Potency is inconclusive: 31.6 µM [inhibitor, single point].

For `CC1(C)CC(=O)C(C(c2cccc([N+](=O)[O-])c2)C2C(=O)CC(C)(C)CC2=O)C(=O)C1`, which “activity change, negative = inhibition” value is on record?
Its value is inactive: 3.53%.

Which Potency does the source give for `CCOC(=O)c1c(C)[nH]c(C(=O)OCC(=O)Nc2ccc(Cl)cn2)c1C` here?
The Potency was “inactive”.

How did the Potency turn out when `O=C(c1cccc(Cl)c1)N1CCC(=O)N([C@H](COCc2ccccc2)Cc2ccccc2)CC1` was run?
The Potency was inconclusive: 35.5 µM [inhibitor, partial curve, poor fit].

Which “activity change, negative = inhibition” value does the source give for `CCc1ccc(CNC(=O)c2ccc(NC(=O)N3CCCCc4ccccc43)cc2)cc1` here?
The value was inactive: -10.3%.

For `S=C(Nc1ccc2c(c1)OCO2)N1CCCC1`, which Potency is on record?
Its Potency is inconclusive: 100 µM [inhibitor, partial curve, poor fit].

Which Potency does the source give for `CCCCOP(=O)(c1ccc(N(C)C)cc1)C(O)c1ccncc1` (stereo not given) here?
Its Potency is inconclusive: 44.7 µM [inhibitor, partial curve, poor fit].

`N#C/C(C(=O)COC(=O)c1ccc(-c2ccccc2)cc1)=C(/c1ccc(F)cc1)N1CCOCC1` was tested. Which Potency did it give?
Its Potency is inconclusive: 5.01 µM [inhibitor, partial curve, poor fit].

How did the “activity change, negative = inhibition” value turn out when `C=C1[C@H](n2cnc3c(=O)[nH]c(N)nc32)C[C@H](O)[C@H]1CO` was run?
The value was inactive: -5.66% [at 57.4 µM].

`CC(C)(NS(=O)(=O)OCC(Cl)(Cl)Cl)c1ccccc1` was tested. Which “activity change, negative = inhibition” value did it give?
The value was inactive: 2.61%.

Which “activity change, negative = inhibition” value does the source give for `Cc1ccc(F)c(S(=O)(=O)NC(=O)C2(C)CCN2C(=O)C2(c3ccc(Cl)cc3)CCC2)c1` (stereo not given) here?
Its value is inactive: 34.4%.

For `Cc1[nH]n(-c2cccc3ccccc23)c(=O)c1C=Nc1ccc2[nH]c(=O)[nH]c2c1`, which Potency is on record?
The Potency was inconclusive: 44.7 µM [inhibitor, partial curve, poor fit].

`Clc1cccc(Cc2c(-c3ccco3)nc3ccc(Cl)cn23)c1` was tested. Which Potency did it give?
The Potency was active: 22.4 µM.

For `O=C(O)C1C2CCC(C2)C1C(=O)NCCc1cccc(Cl)c1` (stereo not given), which Potency is on record?
The Potency was inconclusive: 35.5 µM [inhibitor, full curve, poor fit].

For `C/C(=N\NC(=S)Nc1cccc(C)c1)c1ccccc1`, which Potency is on record?
The Potency was inconclusive: 22.4 µM [inhibitor, full curve, poor fit].

With `COc1ccc(C2CCCN2C(=S)Nc2ccccc2C)cc1OC` (stereo not given) as the molecule, how does the “activity change, negative = inhibition” value read?
The value was inactive: 9.42%.

For `CCC[C@H](CN[C@@H](CNC)[C@H](C)CC)NCCc1cc(C(F)(F)F)cc(C(F)(F)F)c1`, which “activity change, negative = inhibition” value is on record?
The value was inactive: -20.5%.

`O=C(Nc1cccc(S(=O)(=O)NC2=NCCCCC2)c1)c1cc(-c2ccco2)nc2ccccc12` was tested. Which Potency did it give?
The Potency was inconclusive: 44.7 µM [inhibitor, partial curve, poor fit].

For `N#CCNC(=O)c1ccc(-c2ccnc(Nc3ccc(N4CCOCC4)cc3)n2)cc1`, which “activity change, negative = inhibition” value is on record?
Its value is inactive: -27.4% [at 57.4 µM].

Which Potency does the source give for `O=C(CSc1nncs1)Nc1nccs1` here?
Its Potency is inconclusive: 31.6 µM [inhibitor, single point].

With `O=C(O)CNS(=O)(=O)c1ccc2c(c1)CCCC2` as the molecule, how does the “activity change, negative = inhibition” value read?
Its value is inactive: -2.8%.

With `CCc1ccc(-c2nn(CC(=O)Nc3ccccc3)c3c2cnc2ccc(F)cc23)cc1` as the molecule, how does the Potency read?
Its Potency is inconclusive: 56.2 µM [inhibitor, partial curve, poor fit].

How did the Potency turn out when `Clc1ccccc1OCCNc1nc(NCC2CC2)nc2ccsc12` was run?
Its Potency is inconclusive: 44.7 µM [inhibitor, partial curve, poor fit].

For `O=C(O)CNC1Cc2ccccc2C1`, which Potency is on record?
Its Potency is inconclusive: 35.5 µM [inhibitor, partial curve, poor fit].

With `CC(C)OC(=O)C(CC(=O)O)N1CCOCC1` (stereo not given) as the molecule, how does the Potency read?
Its Potency is active: 5.62 µM.

For `O=C(NCCNC(=O)c1ccccc1Br)c1ccccc1Br`, which “activity change, negative = inhibition” value is on record?
The value was inactive: 12.4%.

For `Cc1ccc(C)c(C(=O)N2CCC3(CC2)NC(=O)N(c2cccc(F)c2)N3)c1`, which Potency is on record?
The Potency was active: 2.24 µM.

Which Potency does the source give for `COc1ccc(C2CC(c3c(-c4ccccc4)c4cc(Cl)ccc4[nH]c3=O)=NN2S(C)(=O)=O)cc1OC` (stereo not given) here?
The Potency was inconclusive: 89.1 µM [inhibitor, single point].

How did the Potency turn out when `O=C(Cn1c(=O)c2cccn2c2ccccc21)Nc1cc(F)ccc1F` was run?
The Potency was inconclusive: 35.5 µM [inhibitor, partial curve, poor fit].

With `CC1(C)CC(=O)C2=C(C1)N(c1ccccc1C#N)C(N)=C(C#N)C2c1cccs1` (stereo not given) as the molecule, how does the Potency read?
Its Potency is inconclusive: 126 µM [inhibitor, single point].

For `COc1ccccc1/C(C)=N/Nc1ccc(Cl)c(C(=O)O)c1`, which Potency is on record?
The Potency was inconclusive: 70.8 µM [inhibitor, partial curve, poor fit].

How did the Potency turn out when `O=Cc1cn(CC(=O)Nc2ccc(F)cc2)c2ccccc12` was run?
Its Potency is inconclusive: 44.7 µM [inhibitor, partial curve, poor fit].

Which Potency does the source give for `COc1ccccc1C(=O)NCC(=O)OC(C)C(=O)N1CCOCC1` (stereo not given) here?
The Potency was inconclusive: 89.1 µM [inhibitor, single point].

`COc1cccc(/C=N/NC(=O)c2cc(-c3cccn3C)n[nH]2)c1O` was tested. Which “activity change, negative = inhibition” value did it give?
Its value is inactive: -24.4%.

With `Cc1ccc(CN2CCC(C(=O)Nc3cccc(-c4cccc(F)c4)c3)CC2)o1` as the molecule, how does the Potency read?
Its Potency is inconclusive: 89.1 µM [inhibitor, partial curve, poor fit].

Which “activity change, negative = inhibition” value does the source give for `Cc1ccc(CN(C)C(=O)Cc2n[nH]c(=O)c3ccccc23)c(C)c1` here?
Its value is inactive: 3.84%.

For `COC(=O)c1cccc(C23CC4(C2)[C@H](CN(Cc2cccnc2)[C@@H]4c2ccccc2)C3c2ccc(C(F)(F)F)cc2)c1` (stereo not given in full), which Potency is on record?
The Potency was inconclusive: 112 µM [inhibitor, partial curve, poor fit].

How did the Potency turn out when `Fc1ccc(OCc2ncc(-c3ccccc3)o2)c(Br)c1` was run?
The Potency was inconclusive: 100 µM [inhibitor, partial curve, poor fit].

For `Cn1cccc1C(=O)C(=O)Nc1cccc(Cl)c1Cl`, which Potency is on record?
Its Potency is inconclusive: 6.31 µM [inhibitor, partial curve, poor fit].

With `Cc1ccc2ncnc(Nc3ccccc3)c2c1` as the molecule, how does the “activity change, negative = inhibition” value read?
Its value is inactive: 1.49%.

`Cc1ccc(CCNC(=O)Cn2nc(-c3ccc(C)cc3)ccc2=O)cc1` was tested. Which Potency did it give?
Its Potency is inconclusive: 112 µM [inhibitor, partial curve, poor fit].

For `CCN(CC)CCNC(=O)c1cn(CC)c2ccc(S(=O)(=O)N3CCOCC3)cc2c1=O`, which Potency is on record?
Its Potency is “inactive”.

`C#Cc1ccc([C@@H]2C=C(C(=O)NCc3nc4ccccc4[nH]3)O[C@H](OCC)[C@H]2CCCO)cc1` was tested. Which “activity change, negative = inhibition” value did it give?
Its value is inactive: 10.4%.

How did the “activity change, negative = inhibition” value turn out when `COc1ccc(-c2nnc3ccc(Oc4ccc(NC(C)=O)cc4)nn23)cc1` was run?
Its value is inactive: 6%.

With `COc1ccc(Cc2nnc(SCC(=O)Nc3c(C)cccc3C)[nH]c2=O)cc1` as the molecule, how does the Potency read?
The Potency was inconclusive: 39.8 µM [inhibitor, partial curve, poor fit].

With `CC(=O)Nc1cccc(NC(=O)C(=O)NCCc2sc(-c3ccccc3)nc2C)c1` as the molecule, how does the Potency read?
Its Potency is inconclusive: 112 µM [inhibitor, partial curve, poor fit].

How did the Potency turn out when `Cc1ccc(CCNS(=O)(=O)c2ccc3c(c2)N(C)CCO3)cc1` was run?
Its Potency is inconclusive: 112 µM [inhibitor, single point].

For `Cc1ccc(S(=O)(=O)NNC(=S)NCCc2ccccc2)cc1`, which Potency is on record?
The Potency was inconclusive: 10 µM [inhibitor, partial curve, poor fit].

How did the Potency turn out when `N=c1c(C(=O)NCC2CCCO2)cc2c(=O)n3ccccc3nc2n1Cc1ccco1` (stereo not given) was run?
Its Potency is inconclusive: 39.8 µM [inhibitor, partial curve, poor fit].

`Cc1sccc1/C=N/NC(=O)C1CC1` was tested. Which “activity change, negative = inhibition” value did it give?
Its value is inactive: -0.0952%.

Which Potency does the source give for `S=C(NCc1ccccc1)Nc1ccc(Sc2ccc(Br)cc2)cc1` here?
The Potency was active: 28.2 µM.

`CC(C)c1nc2c(c(-c3ccc(Cl)cc3)n1)CCN(Cc1ccc(F)cc1)CC2` was tested. Which Potency did it give?
The Potency was inconclusive: 10 µM [inhibitor, full curve, poor fit].

How did the Potency turn out when `Nc1cc(S(=O)(=O)Nc2cc(Cl)ccc2Cl)ccc1N1CCOCC1` was run?
Its Potency is inconclusive: 112 µM [inhibitor, single point].

Which “activity change, negative = inhibition” value does the source give for `Cc1nc2nc(NCc3ccccc3)[nH]n2c(=O)c1CCC(=O)Nc1ccc2ccccc2c1` here?
The value was inactive: -3.77%.

How did the Potency turn out when `O=C1Cc2cc(S(=O)(=O)NCc3ccc(F)cc3)ccc2N1` was run?
Its Potency is inconclusive: 100 µM [inhibitor, single point].

`COC(=O)c1ccc(NC(=O)CCc2ncc(-c3ccccc3)o2)cc1` was tested. Which “activity change, negative = inhibition” value did it give?
The value was inactive: -1.56%.

For `CSc1ccc(N=Nc2c(C)[nH]n(C)c2=O)cc1`, which activity change, negative = inhibition is on record?
The activity change, negative = inhibition was inconclusive: -30.6% [inhibitor].

With `COC(=O)c1cc(C(=O)OCC(=O)NC(=O)c2ccccc2)cc([N+](=O)[O-])c1` as the molecule, how does the Potency read?
The Potency was inconclusive: 63.1 µM [inhibitor, partial curve, poor fit].

`CCOC(=O)c1cnc(SCC(=O)N2CCOCC2)nc1N` was tested. Which Potency did it give?
Its Potency is inconclusive: 100 µM [inhibitor, partial curve, poor fit].

How did the “activity change, negative = inhibition” value turn out when `Cn1c(=O)c2c(nc(Cl)n2Cc2ccccc2C#N)n(C)c1=O` was run?
Its value is inactive: 3.69%.

With `CCOC(=O)N1CCN(C(=O)C[C@H]2C[C@@]3(C(=O)OC)C(=C[C@H](COCc4ccccc4)O[C@@H]3C)N(Cc3ccc(Cl)cc3Cl)C2=O)CC1` as the molecule, how does the “activity change, negative = inhibition” value read?
The value was inactive: 0%.

`COc1ccc(-n2c(O)c(/C=N/NS(=O)(=O)c3ccc(C)c([N+](=O)[O-])c3)c3ccccc3c2=O)cc1OC` was tested. Which Potency did it give?
The Potency was inconclusive: 44.7 µM [inhibitor, partial curve, poor fit].

Which “activity change, negative = inhibition” value does the source give for `COc1ccccc1N1CCN(C(=O)c2ccc(CN3CCc4ccccc4C3)cc2)CC1` here?
The value was inactive: 10.7%.

`COCC(=O)NC[C@H]1COCc2nc3cc(S(C)(=O)=O)ccc3n21` was tested. Which “activity change, negative = inhibition” value did it give?
Its value is inactive: 22.6% [at 176 µM].

`O=C(O)C1C2C=CC(C2)C1C(=O)NCc1cccs1` (stereo not given) was tested. Which “activity change, negative = inhibition” value did it give?
Its value is inactive: 9.97%.

`CC(C)n1cnnc1CC1CCCN(S(=O)(=O)c2ccc(F)cc2)C1` (stereo not given) was tested. Which “activity change, negative = inhibition” value did it give?
Its value is inactive: 16.9%.

Which Potency does the source give for `CNC(=O)C1C(=S)NC(N)=C(C#N)C1c1ccccc1` (stereo not given) here?
The Potency was inconclusive: 28.2 µM [inhibitor, partial curve, poor fit].

For `Cc1ccc(/C=C/C(=O)Nc2cc(S(N)(=O)=O)ccc2O)cc1`, which “activity change, negative = inhibition” value is on record?
The value was inactive: 33.6%.

`Cc1nnc(N2CC[C@H](N3CCOCC3)[C@H](CCC(=O)O)C2)c2ccccc12` was tested. Which “activity change, negative = inhibition” value did it give?
Its value is inactive: 8.25%.
